Measured values as given in patent US20020001840A1.

Biological target: purified αvβ3 integrin
Test: adhesion of transfected HeLa cells to wells coated with purified αvβ3 integrin

B1: full-length ADAM 23 HA-tagged at the COOH-terminus, on transfected HeLa cells (protein, not shown: small tags and cut ends)
chain: AVNPSRGIFEEMKYLELMIVNDHKTYKKHRSSHAHTNNFAKSVVNLVDSIYKEQLNTRVVLVAVETWTEKDQIDITTNPVQMLHEFSKYRQRIKQHADAVHLISRVTFHYKRSSLSYFGGVCSRTRGVGVNEYGLPMAVAQVLSQSLAQNLGIQWEPSSRKPKCDCTESWGGCIMEETGVSHSRKFSKCSILEYRDFLQRGGGACLFNRPTKLFEPTECGNGYVEAGEECDCGFHVECYGLCCKKCSLSNGAHCSDGPCCNNTSCLFQPRGYECRDAVNECDITEYCTGDSGQCPPNLHKQDGYACNQNQGRCYNGECKTRDNQCQYIWGTKAAGSDKFCYEKLNTEGTEKGNCGKDGDRWIQCSKHDVFCGFLLCTNLTRAPRIGQLQGEIIPTSFYHQGRVIDCSGAHVVLDDDTDVGYVEDGTPCGPSMMCLDRKCLQIQALNMSSCPLDSKGKVCSGHGVCSNEATCICDFTWAGTDCSIRDPVRNLHPPKDEGPKGPSATNLIIGSIAGAILVAAIVLGGTGWGFKNVKKRRFDPTQQGPI
binding: binds

Results are given in words; binding and its absence hold for the method and conditions named. A result given as binding can be weak or reduced; the word gives no strength. Tags and fused reporters may be left off the sequences shown.
